Reference: PubChem BioAssay AID1259323 (Peter MacCallum Cancer Centre, 2017)

Screen: 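Kinase siRNA screen linking the PAR2 receptor to the TRPV4 channel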 (primary screen)
System: human HEK293 cells stably carrying inducible TRPV4
Knock-down reagent: siRNA pool against human genes
Treatment: PAR2 activation; agonist identity and dose not given
Detection: 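Signal of a calcium dye in live cells following PAR2 activation, plateau and early peak normalised to mock transfection on each plate, mean of duplicate plates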
Scale: TRPV4 plateau calcium, % of mock: higher = stronger sustained TRPV4 calcium entry than mock; PAR2 peak calcium, % of mock: higher = stronger early PAR2 calcium response than mock
Hit rule: 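Active when sustained TRPV4 plateau calcium falls below 90% of mock while the early PAR2 peak remains above 79% of mock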
This is a random part of 715 reagents tested. Over the whole deposit, 91 (13%) are marked active. 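Active pools lower the sustained TRPV4 phase but spare the early PAR2 peak; PAR2 agonist and dose are not stated; pools repeat across wells.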 A number with no mark means an inactive call. A reagent listed more than once was tested more than once; the source does not tell the runs apart. Not stated in the record: the amount of reagent, the time to read-out.

target gene	TRPV4 plateau calcium, % of mock	PAR2 peak calcium, % of mock
GSK3A (glycogen synthase kinase 3 alpha)	91	93.4
PIK3C3 (phosphatidylinositol 3-kinase catalytic subunit type 3)	85.8 (active)	96.8
ARAF (A-Raf proto-oncogene, serine/threonine kinase)	94.4	93.8
JAK1 (Janus kinase 1)	93.4	96.8
CALM1 (calmodulin 1)	114	114
IRAK3 (interleukin 1 receptor associated kinase 3)	99	96.9
PRKG1 (protein kinase cGMP-dependent 1)	108	107
MET (MET proto-oncogene, receptor tyrosine kinase)	103	99.7
CDKL4 (cyclin dependent kinase like 4)	102	101
DLG2 (discs large MAGUK scaffold protein 2)	97.8	100
DCLK1 (doublecortin like kinase 1)	91	92.4
ACVR1 (activin A receptor type 1)	88 (active)	88.4
EPHB1 (EPH receptor B1)	93.5	95.3
NEK4 (NIMA related kinase 4)	100	93
STK31 (serine/threonine kinase 31)	103	102
PRKAR2A	105	102
PRKAG3 (protein kinase AMP-activated non-catalytic subunit gamma 3)	91.2	90.4
LMTK1 (lemur tail kinase 1)	104	101
MAPK11 (mitogen-activated protein kinase 11)	99.9	101
NUP62 (nucleoporin 62)	89.5 (active)	80.2
PI4KB (phosphatidylinositol 4-kinase beta)	97.9	90.2
N4BP2 (NEDD4 binding protein 2)	95.4	98.5
RIPK2 (receptor interacting serine/threonine kinase 2)	81.5 (active)	83.8
LTK (leukocyte receptor tyrosine kinase)	108	102
KCNH8 (potassium voltage-gated channel subfamily H member 8)	106	103
CDK18 (cyclin dependent kinase 18)	99.7	104
NEK7 (NIMA related kinase 7)	78.6 (active)	86.6
THNSL1 (threonine synthase like 1)	108	107

Next part (6 carried over from the part before).
target gene	TRPV4 plateau calcium, % of mock	PAR2 peak calcium, % of mock
RIPK2 (receptor interacting serine/threonine kinase 2)	81.5 (active)	83.8
LTK (leukocyte receptor tyrosine kinase)	108	102
KCNH8 (potassium voltage-gated channel subfamily H member 8)	106	103
CDK18 (cyclin dependent kinase 18)	99.7	104
NEK7 (NIMA related kinase 7)	78.6 (active)	86.6
THNSL1 (threonine synthase like 1)	108	107
NTRK1 (neurotrophic receptor tyrosine kinase 1)	93.2	95.7
MAP3K6 (mitogen-activated protein kinase kinase kinase 6)	95	104
PRKACA (protein kinase cAMP-activated catalytic subunit alpha)	113	109
RPS6KC1 (ribosomal protein S6 kinase C1)	112	103
MAGI3	85.4 (active)	89
CKM (creatine kinase, M-type)	88.7 (active)	96.9
BMX (BMX non-receptor tyrosine kinase)	103	103
MAP2K6 (mitogen-activated protein kinase kinase 6)	97.5	98.1
CKS1B (CDC28 protein kinase regulatory subunit 1B)	81.8 (active)	86
FRK (fyn related Src family tyrosine kinase)	93.1	97.9
CSNK1A1 (casein kinase 1 alpha 1)	89.9 (active)	90.4
DYRK3 (dual specificity tyrosine phosphorylation regulated kinase 3)	114	103
PRKAR2B	104	97.6
EPHA4 (EPH receptor A4)	98.5	95.2
PIK3R4 (phosphoinositide-3-kinase regulatory subunit 4)	88.1 (active)	91.9
NEK2 (NIMA related kinase 2)	84.9 (active)	89.8
LYN (LYN proto-oncogene, Src family tyrosine kinase)	100	102
ITK (IL2 inducible T cell kinase)	107	95.7
TGFBR2 (transforming growth factor beta receptor 2)	90.1	95.2
ERBB2 (erb-b2 receptor tyrosine kinase 2)	89.4 (active)	86.7
PKIA (cAMP-dependent protein kinase inhibitor alpha)	96.2	94.1
ALPK2 (alpha kinase 2)	96.3	102
BMPR2 (bone morphogenetic protein receptor type 2)	106	108
HIPK4 (homeodomain interacting protein kinase 4)	100	102
PDIK1L (PDLIM1 interacting kinase 1 like)	93.4	92.4
NTRK2 (neurotrophic receptor tyrosine kinase 2)	103	101
AMHR2 (anti-Mullerian hormone receptor type 2)	89.2 (active)	96.4
TSSK1B (testis specific serine kinase 1B)	90.4	81.7
TSSK1B (testis specific serine kinase 1B)	98.9	90.8
PIK3R2 (phosphoinositide-3-kinase regulatory subunit 2)	99.3	95.2
STK33 (serine/threonine kinase 33)	117	104
PRKD2 (protein kinase D2)	94.8	94.4
STK39 (serine/threonine kinase 39)	85.8 (active)	89.2
EXOSC10 (exosome component 10)	95	95.9
OBSCN	107	105
CDC7 (cell division cycle 7)	90.1	89.1
IGF2R (insulin like growth factor 2 receptor)	86.3 (active)	98.1
STK16 (serine/threonine kinase 16)	116	103
PIK3CD	117	108
CDK5R2 (cyclin dependent kinase 5 regulatory subunit 2)	92.4	96.2
RIOK1 (RIO kinase 1)	118	109
RIOK2 (RIO kinase 2)	96.9	95.4
ALPK1 (alpha kinase 1)	99.8	98.1
BRSK2 (BR serine/threonine kinase 2)	87.8 (active)	90.9
KDR (kinase insert domain receptor)	91.8	94.1
MAPKAPK3 (MAPK activated protein kinase 3)	89.1 (active)	104
TEC (tec protein tyrosine kinase)	94.4	88.7
FLT3 (fms related receptor tyrosine kinase 3)	90 (active)	91.6
SRC (SRC proto-oncogene, non-receptor tyrosine kinase)	114	107
ERBB4 (erb-b2 receptor tyrosine kinase 4)	97.4	97.8
SPHK1 (sphingosine kinase 1)	91.8	97.1
MAP3K12 (mitogen-activated protein kinase kinase kinase 12)	93.7	92.7
FCSK (fucose kinase)	108	112
PANK2 (pantothenate kinase 2)	98.5	98.2
PRKAB1 (protein kinase AMP-activated non-catalytic subunit beta 1)	89.5 (active)	96.3
PKN3 (protein kinase N3)	115	109
